Test results as given in US20050196375A1, “Methods of applying antibiotic compounds to polyurethane biomaterials using textile dyeing technology” (priority 2000, published 2005).

Assays:
[1] = dyebath with no polyurethane present
[2] = pH 8.62, 45° C., 4 hours

O=C(O)c1cn(C2CC2)c2cc(N3CCNCC3)c(F)cc2c1=O [cipro, ciprofloxacin]
stability of cipro to dyeing conditions (concentration before and after dyeing) [1]: little difference between the concentrations before dyeing and after the dyeing | Langmuir isotherm distribution coefficient K [2]: 5.8963 | saturation value of cipro on the cPU [S]f ([2]; 0.25-2.0 g/l): 0.4421 site/kg
